# PubChem BioAssay (NCATS)
# This is one part of the list. These are further read-outs of the screen, such as a control signal, another cell line or another target. No call is given for them. Compounds called inactive in the main read-out are mostly missing here. Words in brackets tell the shape of the fitted curve; partial curves, single points and poor fits give uncertain potencies.
# Assay: S16 Schwann cell PMP22 intronic element beta-lactamase assay (AID 624044)
# Settings: S16 rat Schwann cells, PMP22 element beta-lactamase FRET, 24 h; measured here: 460 nm blue channel
# Summary of the method: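 Beta-lactamase reporter under a PMP22 intronic regulatory element in stable S16 rat Schwann cells; 24 h compound exposure. 460 nm blue signal normalized between DMSO (0%) and potassium clavulanate, with 535 nm FRET tracking viability; curves classed by r2 and response.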
row,SMILES,AC50
1,Nc1ccncc1,"25.1 µM [rising, single point]"
2,COC(=O)C[C@](O)(CCCC(C)(C)O)C(=O)O[C@@H]1C(OC)=C[C@]23CCCN2CCc2cc4c(cc2[C@H]13)OCO4,"0.0999 µM [falling, full curve]"
3,CCC(C(=O)O)C1CCC(C)C(C(C)C(O)C(C)C(=O)C(CC)C2OC3(C=CC(O)[C@@]4(CC[C@](C)(C5CC[C@@](O)(CC)C(C)O5)O4)O3)C(C)CC2C)O1 (stereo not given in full),"0.0398 µM [falling, full curve, poor fit]"
4,O=c1oc2ccccc2c(O)c1Cc1c(O)c2ccccc2oc1=O,"4.25 µM [falling, partial curve, poor fit]"
5,C[C@]12CC[C@H](O)CC1=CCC1C2CC[C@]2(C)C(=O)CC[C@@H]12 (stereo not given in full),"5.01 µM [falling, full curve, poor fit]"
